# Measured values reported in paper PMC3672211.
# These are yes or no findings as the source states them, for the method shown. In cells and extracts the contact can be indirect. Sequences can lack the tags named with a protein.
# Molecular target: T1, MtLYK3-YFP N (Medicago truncatula LysM domain-containing Receptor-Like Kinase 3 fused to the N-terminal part of split YFP) (Medicago truncatula) (UniProt Q6UD73)
# T1 sequence: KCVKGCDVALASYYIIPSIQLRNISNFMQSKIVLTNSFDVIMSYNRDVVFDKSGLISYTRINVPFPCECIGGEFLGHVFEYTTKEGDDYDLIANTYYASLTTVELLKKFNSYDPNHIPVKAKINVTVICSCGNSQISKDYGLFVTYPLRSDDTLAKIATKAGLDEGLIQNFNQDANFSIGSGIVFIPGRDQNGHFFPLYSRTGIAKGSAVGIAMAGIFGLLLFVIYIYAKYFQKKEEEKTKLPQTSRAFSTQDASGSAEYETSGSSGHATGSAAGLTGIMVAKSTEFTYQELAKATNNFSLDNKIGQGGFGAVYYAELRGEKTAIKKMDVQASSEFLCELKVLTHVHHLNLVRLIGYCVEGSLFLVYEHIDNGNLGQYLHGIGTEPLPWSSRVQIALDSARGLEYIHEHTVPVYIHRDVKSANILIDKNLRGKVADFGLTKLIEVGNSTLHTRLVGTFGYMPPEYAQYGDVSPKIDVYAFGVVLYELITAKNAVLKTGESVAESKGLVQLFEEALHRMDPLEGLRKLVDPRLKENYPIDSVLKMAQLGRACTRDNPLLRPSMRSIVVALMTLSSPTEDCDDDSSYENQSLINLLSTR
# Assay: split reporter; BiFluorescence Complementation in Nicotiana benthamiana leaves; Agrobacterium transformants with YFP C and YFP N constructs co-infiltrated at high optical densities (final OD600 = 0.5 each); YFP fluorescence by microscopy
substance,measurement,value
MtLRRII.1-YFP C (Medicago truncatula LRRII.1 fused to the C-terminal part of split YFP) (receptor),binding,no binding
